From the supplement of paper PMC12819154, “High-throughput peptide-centric local stability assay extends protein–ligand identification to membrane proteins, tissues and bacteria” (Nature Structural & Molecular Biology, 2025)
The list shows a part of the results. Small differences around the control level are noise.

Protein sequences, listed by entry. Tags and fused reporters are not part of them. Lines headed by an entry give the natural chain unless they say otherwise; changes in a name come on top.
UniProt P05387, whole entry: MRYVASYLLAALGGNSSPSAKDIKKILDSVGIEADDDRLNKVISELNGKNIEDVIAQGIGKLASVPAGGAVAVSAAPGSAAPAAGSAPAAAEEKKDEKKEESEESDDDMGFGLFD
UniProt P02794, whole entry: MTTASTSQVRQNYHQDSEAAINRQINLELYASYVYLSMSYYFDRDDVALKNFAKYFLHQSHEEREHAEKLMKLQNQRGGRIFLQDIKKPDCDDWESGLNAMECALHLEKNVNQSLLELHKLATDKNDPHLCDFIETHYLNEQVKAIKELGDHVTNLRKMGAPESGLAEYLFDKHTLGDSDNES
UniProt P09110: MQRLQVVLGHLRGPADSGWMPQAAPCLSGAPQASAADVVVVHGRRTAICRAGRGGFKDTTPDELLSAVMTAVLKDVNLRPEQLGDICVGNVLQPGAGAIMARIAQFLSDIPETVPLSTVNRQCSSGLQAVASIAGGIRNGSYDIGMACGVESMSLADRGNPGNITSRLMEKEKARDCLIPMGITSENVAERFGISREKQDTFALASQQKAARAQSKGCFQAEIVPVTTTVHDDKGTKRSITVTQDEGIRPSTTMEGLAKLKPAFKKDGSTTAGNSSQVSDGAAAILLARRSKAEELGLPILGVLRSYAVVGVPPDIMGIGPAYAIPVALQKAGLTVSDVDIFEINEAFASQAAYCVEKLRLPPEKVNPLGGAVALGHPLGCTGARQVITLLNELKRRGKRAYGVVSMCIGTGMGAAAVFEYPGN
UniProt P0CG00: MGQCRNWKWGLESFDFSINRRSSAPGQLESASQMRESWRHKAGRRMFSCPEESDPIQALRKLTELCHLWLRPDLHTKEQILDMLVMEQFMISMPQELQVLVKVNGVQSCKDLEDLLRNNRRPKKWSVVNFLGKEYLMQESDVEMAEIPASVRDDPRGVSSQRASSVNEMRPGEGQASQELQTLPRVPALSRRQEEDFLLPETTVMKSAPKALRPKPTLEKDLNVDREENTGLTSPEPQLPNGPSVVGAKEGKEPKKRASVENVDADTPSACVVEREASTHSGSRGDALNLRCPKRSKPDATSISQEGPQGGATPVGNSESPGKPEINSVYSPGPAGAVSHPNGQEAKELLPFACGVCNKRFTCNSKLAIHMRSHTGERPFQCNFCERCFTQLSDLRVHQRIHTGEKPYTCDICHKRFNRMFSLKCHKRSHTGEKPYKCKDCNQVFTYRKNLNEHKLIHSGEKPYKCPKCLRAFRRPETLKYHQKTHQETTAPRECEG
UniProt P10589: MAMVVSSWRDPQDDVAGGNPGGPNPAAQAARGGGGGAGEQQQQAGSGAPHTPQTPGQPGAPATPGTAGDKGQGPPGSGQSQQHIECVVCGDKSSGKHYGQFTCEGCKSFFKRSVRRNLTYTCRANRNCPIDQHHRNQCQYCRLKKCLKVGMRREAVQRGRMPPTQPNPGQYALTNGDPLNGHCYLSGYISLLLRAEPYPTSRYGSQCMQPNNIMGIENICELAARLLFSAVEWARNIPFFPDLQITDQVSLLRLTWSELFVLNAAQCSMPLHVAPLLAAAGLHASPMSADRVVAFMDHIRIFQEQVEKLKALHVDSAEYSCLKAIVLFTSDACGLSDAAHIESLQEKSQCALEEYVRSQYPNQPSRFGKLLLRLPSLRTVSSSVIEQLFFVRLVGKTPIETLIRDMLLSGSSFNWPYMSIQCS
UniProt P10124: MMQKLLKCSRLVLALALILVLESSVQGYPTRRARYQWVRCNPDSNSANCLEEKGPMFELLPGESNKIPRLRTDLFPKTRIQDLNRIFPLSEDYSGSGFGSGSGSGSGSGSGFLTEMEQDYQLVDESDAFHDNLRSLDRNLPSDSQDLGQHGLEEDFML
UniProt P09622, whole entry: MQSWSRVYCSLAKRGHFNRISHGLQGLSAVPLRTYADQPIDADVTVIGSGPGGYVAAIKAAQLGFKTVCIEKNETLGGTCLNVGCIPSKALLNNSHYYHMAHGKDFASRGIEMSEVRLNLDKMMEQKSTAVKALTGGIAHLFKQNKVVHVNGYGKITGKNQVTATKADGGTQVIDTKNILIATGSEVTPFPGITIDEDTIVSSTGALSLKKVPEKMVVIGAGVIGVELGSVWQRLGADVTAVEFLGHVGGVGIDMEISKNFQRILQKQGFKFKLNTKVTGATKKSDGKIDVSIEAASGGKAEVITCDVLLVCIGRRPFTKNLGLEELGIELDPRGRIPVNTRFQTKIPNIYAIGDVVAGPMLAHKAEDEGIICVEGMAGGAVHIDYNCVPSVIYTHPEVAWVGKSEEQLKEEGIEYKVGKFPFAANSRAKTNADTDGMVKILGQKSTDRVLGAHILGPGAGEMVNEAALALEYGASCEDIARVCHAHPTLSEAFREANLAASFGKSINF
UniProt P11171, whole entry: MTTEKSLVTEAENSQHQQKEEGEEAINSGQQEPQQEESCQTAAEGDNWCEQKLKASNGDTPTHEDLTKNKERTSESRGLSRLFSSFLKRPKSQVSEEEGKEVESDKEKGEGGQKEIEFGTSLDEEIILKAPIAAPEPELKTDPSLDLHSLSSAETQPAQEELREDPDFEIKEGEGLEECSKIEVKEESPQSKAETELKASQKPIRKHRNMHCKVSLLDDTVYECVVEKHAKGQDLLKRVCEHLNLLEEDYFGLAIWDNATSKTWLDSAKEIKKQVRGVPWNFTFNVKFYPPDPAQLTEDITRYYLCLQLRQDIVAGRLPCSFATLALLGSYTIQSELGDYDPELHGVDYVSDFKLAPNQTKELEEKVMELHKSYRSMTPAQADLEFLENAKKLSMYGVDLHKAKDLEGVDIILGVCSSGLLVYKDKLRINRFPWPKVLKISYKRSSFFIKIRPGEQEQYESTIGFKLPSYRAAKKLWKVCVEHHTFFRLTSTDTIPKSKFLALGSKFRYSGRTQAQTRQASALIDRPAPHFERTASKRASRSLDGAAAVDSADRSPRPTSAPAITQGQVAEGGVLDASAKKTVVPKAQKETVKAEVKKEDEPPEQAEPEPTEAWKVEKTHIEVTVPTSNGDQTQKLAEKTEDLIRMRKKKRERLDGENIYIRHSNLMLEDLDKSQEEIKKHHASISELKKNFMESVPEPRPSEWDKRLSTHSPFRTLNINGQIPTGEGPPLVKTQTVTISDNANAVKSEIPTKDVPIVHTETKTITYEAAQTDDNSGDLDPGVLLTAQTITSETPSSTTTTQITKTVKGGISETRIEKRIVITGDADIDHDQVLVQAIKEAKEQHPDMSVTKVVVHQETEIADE
UniProt P10109: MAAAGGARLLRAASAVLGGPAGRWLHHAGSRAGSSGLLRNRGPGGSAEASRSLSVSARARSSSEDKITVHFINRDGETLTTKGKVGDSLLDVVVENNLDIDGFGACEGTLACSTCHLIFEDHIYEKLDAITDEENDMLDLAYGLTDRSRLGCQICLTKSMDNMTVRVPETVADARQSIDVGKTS
UniProt P0C0S5, whole entry: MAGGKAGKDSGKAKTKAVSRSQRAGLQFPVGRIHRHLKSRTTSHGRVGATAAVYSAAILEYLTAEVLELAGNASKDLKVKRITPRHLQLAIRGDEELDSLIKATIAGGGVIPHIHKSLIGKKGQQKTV
UniProt P10768: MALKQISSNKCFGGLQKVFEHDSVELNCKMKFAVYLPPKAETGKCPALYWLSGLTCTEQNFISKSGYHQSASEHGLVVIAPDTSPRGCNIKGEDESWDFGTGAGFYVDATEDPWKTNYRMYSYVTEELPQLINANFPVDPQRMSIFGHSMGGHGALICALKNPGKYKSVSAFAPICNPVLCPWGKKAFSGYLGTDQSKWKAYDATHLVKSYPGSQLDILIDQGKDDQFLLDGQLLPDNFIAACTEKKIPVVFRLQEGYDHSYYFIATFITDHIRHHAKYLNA
UniProt P09493, whole entry: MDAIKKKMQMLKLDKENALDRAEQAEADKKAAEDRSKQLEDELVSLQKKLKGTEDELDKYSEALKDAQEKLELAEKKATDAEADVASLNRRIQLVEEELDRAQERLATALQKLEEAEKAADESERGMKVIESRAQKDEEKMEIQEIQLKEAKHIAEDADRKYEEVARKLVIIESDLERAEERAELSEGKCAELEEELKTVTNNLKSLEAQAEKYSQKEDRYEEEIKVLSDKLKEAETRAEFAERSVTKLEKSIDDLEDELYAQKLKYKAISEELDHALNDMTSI
UniProt P04920: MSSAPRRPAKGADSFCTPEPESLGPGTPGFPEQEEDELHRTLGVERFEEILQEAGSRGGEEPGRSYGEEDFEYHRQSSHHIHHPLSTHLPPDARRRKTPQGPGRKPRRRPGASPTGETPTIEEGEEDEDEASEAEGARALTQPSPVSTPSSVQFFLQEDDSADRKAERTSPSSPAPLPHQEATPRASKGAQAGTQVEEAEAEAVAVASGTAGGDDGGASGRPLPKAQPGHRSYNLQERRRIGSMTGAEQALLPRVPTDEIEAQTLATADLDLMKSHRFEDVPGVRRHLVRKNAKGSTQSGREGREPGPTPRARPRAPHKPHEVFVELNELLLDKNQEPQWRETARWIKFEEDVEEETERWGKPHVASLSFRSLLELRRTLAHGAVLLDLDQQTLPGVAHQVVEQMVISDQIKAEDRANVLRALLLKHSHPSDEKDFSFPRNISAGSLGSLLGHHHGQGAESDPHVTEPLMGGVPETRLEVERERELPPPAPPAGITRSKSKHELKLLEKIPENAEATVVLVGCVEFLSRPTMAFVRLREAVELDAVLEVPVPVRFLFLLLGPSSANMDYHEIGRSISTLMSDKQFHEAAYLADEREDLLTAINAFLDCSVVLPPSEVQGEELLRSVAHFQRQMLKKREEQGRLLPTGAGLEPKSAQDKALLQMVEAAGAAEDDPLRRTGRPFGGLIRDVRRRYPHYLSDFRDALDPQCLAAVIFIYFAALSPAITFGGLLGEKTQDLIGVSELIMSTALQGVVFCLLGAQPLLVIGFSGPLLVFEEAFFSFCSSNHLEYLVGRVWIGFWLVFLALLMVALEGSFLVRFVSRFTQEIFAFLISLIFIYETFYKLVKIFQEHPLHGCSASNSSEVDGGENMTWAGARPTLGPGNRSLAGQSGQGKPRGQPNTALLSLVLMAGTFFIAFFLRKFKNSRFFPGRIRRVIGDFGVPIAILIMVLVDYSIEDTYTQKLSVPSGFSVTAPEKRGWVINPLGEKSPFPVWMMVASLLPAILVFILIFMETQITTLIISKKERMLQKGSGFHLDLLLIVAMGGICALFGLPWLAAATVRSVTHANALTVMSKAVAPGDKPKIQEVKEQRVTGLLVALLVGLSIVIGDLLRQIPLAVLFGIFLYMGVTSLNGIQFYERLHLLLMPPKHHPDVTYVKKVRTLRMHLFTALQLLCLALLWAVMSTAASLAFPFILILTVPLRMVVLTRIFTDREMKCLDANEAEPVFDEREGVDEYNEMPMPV
UniProt P04350, whole entry: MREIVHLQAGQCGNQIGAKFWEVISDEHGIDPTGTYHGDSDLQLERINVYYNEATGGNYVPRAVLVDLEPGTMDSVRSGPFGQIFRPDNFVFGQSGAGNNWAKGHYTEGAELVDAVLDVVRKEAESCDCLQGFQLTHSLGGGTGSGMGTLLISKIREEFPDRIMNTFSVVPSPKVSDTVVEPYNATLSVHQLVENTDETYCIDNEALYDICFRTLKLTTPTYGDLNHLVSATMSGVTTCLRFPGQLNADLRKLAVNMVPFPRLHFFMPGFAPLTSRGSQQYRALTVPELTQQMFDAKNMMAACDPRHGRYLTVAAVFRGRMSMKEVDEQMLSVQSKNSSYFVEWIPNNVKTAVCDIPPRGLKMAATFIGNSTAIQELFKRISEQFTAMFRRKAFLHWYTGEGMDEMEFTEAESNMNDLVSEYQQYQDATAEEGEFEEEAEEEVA
UniProt P04075: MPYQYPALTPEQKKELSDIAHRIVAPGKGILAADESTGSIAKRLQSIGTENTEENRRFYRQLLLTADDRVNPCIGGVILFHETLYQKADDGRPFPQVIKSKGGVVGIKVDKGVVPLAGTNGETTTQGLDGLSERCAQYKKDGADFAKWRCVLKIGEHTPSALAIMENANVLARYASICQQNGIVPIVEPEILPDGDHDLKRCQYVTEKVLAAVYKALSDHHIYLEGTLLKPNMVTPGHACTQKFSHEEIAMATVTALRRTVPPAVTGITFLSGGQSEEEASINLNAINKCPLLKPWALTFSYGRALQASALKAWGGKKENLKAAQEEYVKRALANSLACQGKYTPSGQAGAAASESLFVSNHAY
UniProt P07902: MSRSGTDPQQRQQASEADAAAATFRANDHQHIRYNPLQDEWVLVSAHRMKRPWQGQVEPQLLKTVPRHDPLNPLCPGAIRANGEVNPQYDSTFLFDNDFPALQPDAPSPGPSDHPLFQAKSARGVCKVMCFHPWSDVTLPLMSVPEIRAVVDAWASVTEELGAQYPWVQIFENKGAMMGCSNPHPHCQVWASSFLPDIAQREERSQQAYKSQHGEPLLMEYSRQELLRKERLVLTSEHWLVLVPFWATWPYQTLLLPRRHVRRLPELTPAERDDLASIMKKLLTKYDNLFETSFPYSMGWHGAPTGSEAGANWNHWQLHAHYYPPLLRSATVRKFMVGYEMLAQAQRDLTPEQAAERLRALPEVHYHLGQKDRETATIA

Compound: CN[C@@H]1C[C@H]2O[C@@](C)([C@@H]1OC)n1c3ccccc3c3c4c(c5c6ccccc6n2c5c31)C(=O)NC4 [staurosporine]
Assay: log2 fold change of tryptic peptide abundance, ligand vs vehicle (limited proteolysis) (log2 ratio); higher = more trypsin-susceptible (destabilized)
Conditions: ligand concentration: 20 uM; sample: K562 cleared lysate; digestion: 4 min, 22 C (HT-PELSA RT4min, Orbitrap Astral)

Target	log2 fold change
LMNA (peptide sequence: SVGGSGGGSFGDNLVTR, peptide start residue: 628) (UniProt P02545)	0.801
MAPT (peptide sequence: LQTAPVPMPDLK, peptide start residue: 560) (UniProt P10636)	0.269
RPLP2 (peptide sequence: ILDSVGIEADDDRLNK, peptide start residue: 26) (UniProt P05387)	-0.0509
FTH1 (peptide sequence: YFLHQSHEEREHAEK, peptide start residue: 55) (UniProt P02794)	-0.593
HSP90AA1 (peptide sequence: LGIHEDSQNR, peptide start residue: 447) (UniProt P07900)	0.287
HNRNPC (peptide sequence: MIAGQVLDINLAAEPK, peptide start residue: 74) (UniProt P07910)	-0.171
ACAA1 (peptide sequence: RSITVTQDEGIRPSTTMEGLAK, peptide start residue: 238) (UniProt P09110)	-0.385
TPM3 (peptide sequence: HIAEEADRK, peptide start residue: 117) (UniProt P06753)	-0.138
SLC3A2 (peptide sequence: LKLEPHEGLLLR, peptide start residue: 614) (UniProt P08195)	0.321
UniProt P0CG00 (peptide sequence: KNLNEHK, peptide start residue: 449)	0.324
UniProt P10589 (peptide sequence: IFQEQVEK, peptide start residue: 294)	-0.309
SRGN (peptide sequence: GPMFELLPGESNKIPR, peptide start residue: 54) (UniProt P10124)	-0.405
DLD (peptide sequence: FPFAANSR, peptide start residue: 421) (UniProt P09622)	0.316
POLB (peptide sequence: IAEKIDEFLATGK, peptide start residue: 69) (UniProt P06746)	-0.209
EPB41 (peptide sequence: NFMESVPEPRPSEWDK, peptide start residue: 691) (UniProt P11171)	0.372
FDX1 (peptide sequence: QSIDVGKTS, peptide start residue: 176) (UniProt P10109)	0.118
UniProt P06401 (peptide sequence: ILAGMVKPLLFHKK, peptide start residue: 920)	0.533
UniProt P0C0S5 (peptide sequence: ATIAGGGVIPHIHK, peptide start residue: 103)	0.129
ESD (peptide sequence: AYDATHLVK, peptide start residue: 201) (UniProt P10768)	0.0737
UBL4A (peptide sequence: LTLDDIER, peptide start residue: 130) (UniProt P11441)	0.353
TPM1 (peptide sequence: HIAEDADRK, peptide start residue: 153) (UniProt P09493)	-0.242
SLC4A2 (peptide sequence: TSPSSPAPLPHQEATPR, peptide start residue: 169) (UniProt P04920)	-0.47
UniProt P04350 (peptide sequence: MAATFIGNSTAIQELFKR, peptide start residue: 363)	0.465
ALDOA (peptide sequence: AAQEEYVKR, peptide start residue: 323) (UniProt P04075)	0.175
COL1A2 (peptide sequence: GPAGPSGPAGK, peptide start residue: 1054) (UniProt P08123)	-0.147
UniProt P0C0S8 (peptide sequence: AGLQFPVGRVHR, peptide start residue: 22)	0.26
MYL4 (peptide sequence: ESNGTVMGAELR, peptide start residue: 145) (UniProt P12829)	0.241
GALT (peptide sequence: YNPLQDEWVLVSAHR, peptide start residue: 34) (UniProt P07902)	0.336
HSPA5 (peptide sequence: LSSEDKETMEK, peptide start residue: 586) (UniProt P11021)	0.284

8 entries from above, set out differently:
Target,log2 fold change
"EPB41 (peptide sequence: NFMESVPEPRPSEWDK, peptide start residue: 691) (UniProt P11171)",0.372
"FDX1 (peptide sequence: QSIDVGKTS, peptide start residue: 176) (UniProt P10109)",0.118
"UniProt P06401 (peptide sequence: ILAGMVKPLLFHKK, peptide start residue: 920)",0.533
"UBL4A (peptide sequence: LTLDDIER, peptide start residue: 130) (UniProt P11441)",0.353
"TPM1 (peptide sequence: HIAEDADRK, peptide start residue: 153) (UniProt P09493)",-0.242
"UniProt P04350 (peptide sequence: MAATFIGNSTAIQELFKR, peptide start residue: 363)",0.465
"ALDOA (peptide sequence: AAQEEYVKR, peptide start residue: 323) (UniProt P04075)",0.175
"MYL4 (peptide sequence: ESNGTVMGAELR, peptide start residue: 145) (UniProt P12829)",0.241
